# Primary screen of a compound library

Amino acid sequences for entries named in this document (tags omitted).
UniProt E9BF75, entry or part of it: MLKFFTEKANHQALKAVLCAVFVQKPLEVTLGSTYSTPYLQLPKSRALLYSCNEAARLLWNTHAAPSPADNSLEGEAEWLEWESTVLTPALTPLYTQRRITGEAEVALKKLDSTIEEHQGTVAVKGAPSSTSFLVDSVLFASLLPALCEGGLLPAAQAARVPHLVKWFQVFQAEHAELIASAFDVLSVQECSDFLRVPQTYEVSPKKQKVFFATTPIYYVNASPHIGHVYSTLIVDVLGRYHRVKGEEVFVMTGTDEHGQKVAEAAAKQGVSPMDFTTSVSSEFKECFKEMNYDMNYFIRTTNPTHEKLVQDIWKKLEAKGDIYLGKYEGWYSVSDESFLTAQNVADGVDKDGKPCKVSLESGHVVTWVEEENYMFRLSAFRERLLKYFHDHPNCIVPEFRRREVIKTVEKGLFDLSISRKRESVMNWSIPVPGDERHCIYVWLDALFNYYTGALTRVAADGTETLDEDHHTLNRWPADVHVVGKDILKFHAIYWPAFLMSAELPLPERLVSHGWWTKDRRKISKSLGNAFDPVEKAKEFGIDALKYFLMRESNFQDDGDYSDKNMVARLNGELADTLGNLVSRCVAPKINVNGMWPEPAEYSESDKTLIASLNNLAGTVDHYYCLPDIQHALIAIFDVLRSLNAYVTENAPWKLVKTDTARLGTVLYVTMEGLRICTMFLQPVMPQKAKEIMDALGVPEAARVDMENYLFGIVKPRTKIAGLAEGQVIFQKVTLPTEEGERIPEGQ

Source: ChEMBL document CHEMBL3988442, “University of Dundee, Small-Polar-MMV Screening Library” (2021).

Results are percentages, as filed. The record does not define 0% and 100%; most values in the screen are far below 50% and negative numbers occur (in some assays of this library far below -100). This is an unselected part of the compounds tested.

Mtb heat-shock: 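Assay on Mycobacterium tuberculosis, filed only as a heat shock assay from Cornell; the read-out is not stated. The concentration is filed as 10 mM, unlikely as a test dose, so the dose is not known. Higher reads as stronger inhibition (inferred: compounds with an IC50 in retests scored well above the rest). About 69,000 compounds were tested under these conditions; 1.4% (about 930) showed 50% or more at least once.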
LdMetRS: 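Primary screen of methionyl-tRNA synthetase; the read-out is not stated. Target: Methionyl-tRNA synthetase (putative), Leishmania donovani (UniProt E9BF75). The test concentration is not given. The values are filed as inhibition. About 68,000 compounds were tested under these conditions; 0.035% (about 24) showed 50% or more at least once.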
Mtb growth Cornell: 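Whole-cell assay for inhibitors of Mycobacterium tuberculosis growth, labelled Cornell in the record; the read-out is not stated. The concentration is filed as 10 mM, unlikely as a test dose, so the dose is not known. Higher means stronger inhibition (inferred from two other growth screens of the library). Size under these conditions: about 53,000 compounds, about 900 of them at 50% or above in at least one test.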

Cc1ccc(CN2CCCC23Cc2ccccc2CNC3=O)cc1 (stereo not given) read Mtb heat-shock: -22.09%; LdMetRS: 6.286%. Result for O=C1CCCN1CCN1CC=C(c2cnn(C3CCS(=O)(=O)C3)c2)CC1 (stereo not given) was Mtb heat-shock: 13.29%; LdMetRS: 16.03%; Mtb growth Cornell: -9.116%. With Cc1ccc(CN2CC3(CCN(C(=O)c4cscn4)C3)C2)s1.O=C(O)C(F)(F)F the screen gave Mtb heat-shock: -22.31%; Mtb growth Cornell: 43.72%. CCN1N=C(C(=O)N2CCCC(c3noc(C)n3)C2)CCC1=O (stereo not given) gave Mtb heat-shock: -9.877%; LdMetRS: -1.079%; Mtb growth Cornell: -6.228%. Result for Cc1cnc(C(=O)NCC(c2ccc(C)o2)N2CCOCC2)cn1 (stereo not given) was Mtb heat-shock: -9.661%; LdMetRS: -1.087%; Mtb growth Cornell: -42.27%. With CC(C)(C(=O)NCCC(=O)O)c1cccc(Br)c1 the screen gave Mtb heat-shock: -0.9664%; LdMetRS: 10.6%; Mtb growth Cornell: 26.11%.

For Cc1ccsc1C(=O)N1CCc2ncc(CN3CCCC3)n2CC1 the result was LdMetRS: 7.843%. O=C(NCCc1ccc(Cl)s1)NCc1nnc2n1CCC2 read Mtb heat-shock: -24.73%; LdMetRS: 10.24%; Mtb growth Cornell: 13.4%. For NC(=O)c1ccc(-n2ccnc2C2CC2)cc1N1CCCC1 the result was Mtb heat-shock: 0.8729%; LdMetRS: 11.94%; Mtb growth Cornell: 7.953%. Result for COCCCC1(C(=O)O)CCCN(Cc2ccccc2C)C1 (stereo not given) was Mtb heat-shock: -14.04%; LdMetRS: 2.419%; Mtb growth Cornell: 2.048%. Result for O=C(C[C@@H]1COC[C@H]2CN(C3CCC3)C[C@@H]12)NCc1cccnc1 was LdMetRS: 8.242%. With CCc1cc(N(C)Cc2cc[nH]n2)n2nc(C)c(C)c2n1 the screen gave Mtb heat-shock: 19.05%; LdMetRS: 7.161%; Mtb growth Cornell: 4.829%.

Result for COC(=O)NCC(=O)N1CCC(c2nc3cc(F)ccc3[nH]2)CC1 was Mtb heat-shock: 14.2%; LdMetRS: 3.2%. Cc1cc(C)c2nc(C)cc(C(=O)NCc3csc(N(C)C)n3)c2c1 read Mtb heat-shock: -19.45%; LdMetRS: 6.4%. COCCN1CCC2(CC1)CC(Nc1ccc(C)nn1)CO2.O=C(O)C(F)(F)F (stereo not given) read Mtb heat-shock: -3.841%; Mtb growth Cornell: 26.85%. CC(C)c1nn(CC(=O)N2CCCCC2)c(=O)c2c1cnn2C(C)(C)C gave Mtb heat-shock: 16.99%; LdMetRS: 12.32%; Mtb growth Cornell: 8.128%. For Cn1cc(CN2CCC3(CCCN3Cc3cccnc3)CC2)cn1.O=C(O)C(F)(F)F.O=C(O)C(F)(F)F.O=C(O)C(F)(F)F the result was Mtb heat-shock: -39.86%; Mtb growth Cornell: 2.704%. Result for Cc1ccc2cc(C(=O)N3CCCN(C)CC3)ccc2n1 was Mtb heat-shock: -4.29%; LdMetRS: 8.462%; Mtb growth Cornell: -5.453%.

For COc1cccc(CN2CC(O)CN(C(=O)C3CC3)CC2=O)c1OC (stereo not given) the result was Mtb heat-shock: 31.08%; LdMetRS: 7.945%; Mtb growth Cornell: 6.001%. For Cc1nn(Cc2ccc(F)cc2)c2[nH]nc(N)c12 the result was Mtb heat-shock: 2.691%; LdMetRS: 0%; Mtb growth Cornell: 41.44%.

Once more, the final 2:

{"smiles": "COc1cccc(CN2CC(O)CN(C(=O)C3CC3)CC2=O)c1OC", "stereo": "stereo not given", "Mtb heat-shock": 31.08, "LdMetRS": 7.945, "Mtb growth Cornell": 6.001}
{"smiles": "Cc1nn(Cc2ccc(F)cc2)c2[nH]nc(N)c12", "Mtb heat-shock": 2.691, "LdMetRS": 0, "Mtb growth Cornell": 41.44}